Five molecules from publication PMC12061305 can be followed below.

By UniProt entry, the sequences of proteins in these tests, tags left out.
UniProt Q8VEK3: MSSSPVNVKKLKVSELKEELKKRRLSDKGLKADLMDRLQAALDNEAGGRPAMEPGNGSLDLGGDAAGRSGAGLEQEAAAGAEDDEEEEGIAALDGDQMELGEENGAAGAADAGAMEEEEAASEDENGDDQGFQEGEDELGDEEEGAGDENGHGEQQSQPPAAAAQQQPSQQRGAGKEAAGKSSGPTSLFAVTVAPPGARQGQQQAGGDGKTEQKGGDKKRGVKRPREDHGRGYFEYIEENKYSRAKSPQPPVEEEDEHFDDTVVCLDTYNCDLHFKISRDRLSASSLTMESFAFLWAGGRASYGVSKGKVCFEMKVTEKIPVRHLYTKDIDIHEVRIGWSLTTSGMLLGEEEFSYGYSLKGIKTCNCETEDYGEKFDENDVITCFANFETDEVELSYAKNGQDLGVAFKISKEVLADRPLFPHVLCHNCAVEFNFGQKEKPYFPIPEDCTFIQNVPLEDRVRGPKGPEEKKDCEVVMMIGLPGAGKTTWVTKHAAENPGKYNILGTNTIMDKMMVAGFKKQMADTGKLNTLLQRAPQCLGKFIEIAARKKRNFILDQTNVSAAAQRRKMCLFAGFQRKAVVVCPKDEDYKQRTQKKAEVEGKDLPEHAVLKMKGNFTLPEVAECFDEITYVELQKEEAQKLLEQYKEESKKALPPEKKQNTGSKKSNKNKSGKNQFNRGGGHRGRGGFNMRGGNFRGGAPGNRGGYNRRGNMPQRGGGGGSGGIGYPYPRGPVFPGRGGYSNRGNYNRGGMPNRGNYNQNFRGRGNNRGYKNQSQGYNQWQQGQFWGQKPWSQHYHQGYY

These are yes or no findings as the source states them, for the method shown. In cells and extracts the contact can be indirect. Here binding means that the protein was enriched with, or labelled near, the bait; the list need not be complete.

For this assay, the target named is T1, Niban2 (niban apoptosis regulator 2), immunoprecipitated for mass spectrometry (UniProt Q8R1F1).
T1 sequence: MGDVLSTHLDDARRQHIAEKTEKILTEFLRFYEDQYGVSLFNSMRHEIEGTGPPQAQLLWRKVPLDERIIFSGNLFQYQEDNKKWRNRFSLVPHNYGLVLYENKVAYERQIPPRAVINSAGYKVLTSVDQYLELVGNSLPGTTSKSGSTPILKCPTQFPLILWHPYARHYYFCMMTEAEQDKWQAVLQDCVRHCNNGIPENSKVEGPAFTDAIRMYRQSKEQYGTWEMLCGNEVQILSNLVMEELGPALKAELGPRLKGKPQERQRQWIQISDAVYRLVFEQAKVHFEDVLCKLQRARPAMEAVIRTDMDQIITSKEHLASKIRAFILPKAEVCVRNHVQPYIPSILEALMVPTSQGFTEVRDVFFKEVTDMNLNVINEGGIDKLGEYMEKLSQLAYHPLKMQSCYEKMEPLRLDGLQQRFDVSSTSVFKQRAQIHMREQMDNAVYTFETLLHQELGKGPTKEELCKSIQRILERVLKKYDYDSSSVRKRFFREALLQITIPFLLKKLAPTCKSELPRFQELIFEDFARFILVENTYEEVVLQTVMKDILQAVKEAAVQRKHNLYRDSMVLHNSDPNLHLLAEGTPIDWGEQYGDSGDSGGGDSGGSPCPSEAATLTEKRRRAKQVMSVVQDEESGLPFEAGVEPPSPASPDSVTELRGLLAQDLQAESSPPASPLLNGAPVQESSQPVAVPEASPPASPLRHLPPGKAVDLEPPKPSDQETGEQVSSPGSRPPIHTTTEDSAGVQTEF
Nature of the assay: affinity purification with mass spectrometry; Niban2 immunoprecipitated from cell lysate, IgG group as control; co-precipitated proteins identified by mass spectrometry; cells not given.

With “Hnrnpu (found with immunoprecipitated Niban2 by mass spectrometry) (from UniProt Q8VEK3 1-800)”, the binding entry was “binds”.
As to Hnrnpk (from UniProt P61979 1-463), the binding result is on record as “binds”.

B1: Nono (protein, UniProt Q99K48 1-473)
chain: MQSNKAFNLEKQNHTPRKHHQHHHQQHHQQQQQQQQQQPPPPIPANGQQASSQNEGLTIDLKNFRKPGEKTFTQRSRLFVGNLPPDITEEEMRKLFEKYGKAGEVFIHKDKGFGFIRLETRTLAEIAKVELDNMPLRGKQLRVRFACHSASLTVRNLPQYVSNELLEEAFSVFGQVERAVVIVDDRGRPSGKGIVEFSGKPAARKALDRCSEGSFLLTTFPRPVTVEPMDQLDDEEGLPEKLVIKNQQFHKEREQPPRFAQPGSFEYEYAMRWKALIEMEKQQQDQVDRNIKEAREKLEMEMEAARHEHQVMLMRQDLMRRQEELRRMEELHNQEVQKRKQLELRQEEERRRREEEMRRQQEEMMRRQQEGFKGTFPDAREQEIRMGQMAMGGAMGINNRGAMPPAPVPPGTPAPPGPATMMPDGTLGLTPPTTERFGQAATMEGIGAIGGTPPAFNRPAPGAEFAPNKRRRY
On to B1, for which the binding result is reported as “binds”.

B2: Hnrnpr (protein, UniProt Q8VHM5 1-632)
chain: MANQVNGNAVQLKEEEEPMDTSSVTHTEHYKTLIEAGLPQKVAERLDEIFQTGLVAYVDLDERAIDALREFNEEGALSVLQQFKESDLSHVQNKSAFLCGVMKTYRQREKQGSKVQESTKGPDEAKIKALLERTGYTLDVTTGQRKYGGPPPDSVYSGVQPGIGTEVFVGKIPRDLYEDELVPLFEKAGPIWDLRLMMDPLSGQNRGYAFITFCGKEAAQEAVKLCDSYEIRPGKHLGVCISVANNRLFVGSIPKNKTKENILEEFSKVTEGLVDVILYHQPDDKKKNRGFCFLEYEDHKSAAQARRRLMSGKVKVWGNVVTVEWADPVEEPDPEVMAKVKVLFVRNLATTVTEEILEKSFSEFGKLERVKKLKDYAFVHFEDRGAAVKAMDEMNGKEIEGEEIEIVLAKPPDKKRKERQAARQASRSTAYEDYYYHPPPRMPPPMRGRGRGGRGGYGYPPDYYGYEDYYDDYYGYDYHDYRGGYEDPYYGYDDGYAVRGRGGGRGGRGAPPPPRGRGAPPPRGRAGYSQRGAPLGPPRGSRGGRGGPAQQQRGRGSRGARGNRGGNVGGKRKADGYNQPDSKRRQTNNQQNWGSQPIAQQPLQQGGDYSGNYGYNNDNQEFYQDTYGQQWK
For the molecule B2, the binding result is given as “binds”.

B3: Hnrnpdl (protein, UniProt Q9Z130 1-301)
chain: MEDMNEYSNIEEFAEGSKINASKNQQDDGKMFIGGLSWDTSKKDLTEYLSRFGEVVDCTIKTDPVTGRSRGFGFVLFKDAASVDKVLELKEHKLDGKLIDPKRAKALKGKEPPKKVFVGGLSPDTSEEQIKEYFGAFGEIENIELPMDTKTNERRGFCFITYTDEEPVKKLLESRYHQIGSGKCEIKVAQPKEVYRQQQQQQKGGRGAAAGGRGGARGRGRGQGQNWNQGFNNYYDQGYGNYNSAYGGDQNYSGYGGYDYTGYNYGNYGYGQGYADYSGQQSTYGKASRGGGNHQNNYQPY
With B3, the binding entry is reported as “binds”.
